Results of single-concentration screens

Protein sequences, listed by entry. Tags and fused reporters are not part of them.
UniProt P9WNZ1, whole entry: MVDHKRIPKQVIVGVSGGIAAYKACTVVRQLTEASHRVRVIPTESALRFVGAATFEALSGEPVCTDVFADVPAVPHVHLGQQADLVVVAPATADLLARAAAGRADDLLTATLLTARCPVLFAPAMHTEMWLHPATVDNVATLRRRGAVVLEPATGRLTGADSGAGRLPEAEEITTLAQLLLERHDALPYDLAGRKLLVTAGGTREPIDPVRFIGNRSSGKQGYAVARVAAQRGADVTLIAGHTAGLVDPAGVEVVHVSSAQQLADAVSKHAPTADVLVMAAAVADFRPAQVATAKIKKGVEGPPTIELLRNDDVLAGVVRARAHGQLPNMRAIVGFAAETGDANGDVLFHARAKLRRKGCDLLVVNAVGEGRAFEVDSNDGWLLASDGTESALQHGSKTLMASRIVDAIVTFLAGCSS

Data taken from ChEMBL document CHEMBL3988442, “University of Dundee, Small-Polar-MMV Screening Library” (2021).

A: 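Assay of Toxoplasma gondii numbers, read through their beta-galactosidase reporter with a colour substrate. Compounds at 10 µM. Higher reads as fewer parasites (inferred from which compounds were picked for retests). About 67,000 compounds were tested under these conditions; 0.38% (about 260) showed 50% or more at least once.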
B: 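Enzyme assay of CoaBC with a phosphate dye (Biomol Green) read at 650 nm. Target: Coenzyme A biosynthesis protein CoaBC, Mycobacterium tuberculosis (UniProt P9WNZ1). Concentration: 30 µM. Direction is inferred from only a few compounds that gave an IC50; most scored high, so higher reads as stronger inhibition. Most strong results did not repeat in a second test. Of about 67,000 compounds tested this way, about 40 (0.06%) reached 50% or more in at least one test.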

Each number is a percent effect as filed.
The record does not define 0% and 100%; most values in the screen are far below 50% and negative numbers occur (in some assays of this library far below -100).
This is an unselected part of the compounds tested.
A dash means the value is not listed here; it may have been measured.

| structure | A | B |
|---|---|---|
| `Cc1cc(C)n(CC2CCCN2C(=O)c2cnccn2)n1` (centres unmarked) | -22.27 | 9.565 |
| `CC(C)N1CCC(Cc2cncc(-c3cccc(C(=O)O)c3)n2)C1` (centres unmarked) | 0.1459 | 1.716 |
| `CN(C)c1ccc(C(=O)NCCCc2ccccn2)cn1` | 3.581 | 9.859 |
| `CN1CCN(CC[C@@H]2CC[C@H](O)[C@@H](C(=O)Nc3ccccc3)O2)CC1` | -0.07437 | 15.13 |
| `Cc1cccc(O[C@H]2COCCN(C3CCC3)C2)n1` | 6.767 | 15.52 |
| `O=C(O)C(F)(F)F.[H][C@@]12CN(Cc3ccco3)CCO[C@]1([H])CN(S(=O)(=O)CC)C2` | -1.859 | - |
| `CC(C)(C)n1ncc2c1NC(=O)CC2c1cccs1` (centres unmarked) | 18.19 | -0.3632 |
| `CN(c1cccnc1N1CCCC1)S(=O)(=O)c1cnn(C)c1` | -3.459 | 8.471 |
| `COCCn1ccnc1C1CCCN(C(=O)c2cc(F)cc(F)c2)C1` (centres unmarked) | 8.984 | 2.02 |
| `Cc1cccc(-c2nccnc2C2CCCN(C)C2)c1C` (centres unmarked) | 0.3053 | 3.589 |
| `CCN(CC)S(=O)(=O)c1ccc(C(=O)NC(C)(C)C)cc1` | 13.24 | 5.14 |
| `CN1C(=O)C2(CCN(Cc3cccnc3)CC2)c2cccc(F)c21.Cl` | -2.51 | - |
| `Cn1c(CN2CC[C@](C)(O)C(C)(C)C2)cc2ccccc21` | 36.16 | -3.617 |
| `CN1CC(=O)N(c2cnn(C)c2)CC12CCN(Cc1cccnc1)C2` (centres unmarked) | - | 0.6165 |
| `CCCc1nnc(N2CCN(c3ccccc3F)CC2)o1` | 32.76 | 2.357 |
| `CCc1ccc2c(c1)C(CCNC(=O)Cc1cccc(F)c1)C(=O)N2` (centres unmarked) | -9.576 | 3.629 |
| `CC(=O)c1ccc(CNC(=O)c2c(C)cc(C)cc2C)nc1C` | -6.591 | 1.946 |
| `Cc1cccc(-c2ccc(C(=O)NCC(C)(C)C(N)=O)c(=O)[nH]2)c1` | 4.423 | -0.8304 |
| `Cc1ccn(CCC(=O)N2CCCC2c2nnc(-c3scnc3C)o2)n1` (centres unmarked) | -20.71 | 4.468 |
| `CC(CNC(=O)NCc1ccco1)N1CCc2sccc2C1` (centres unmarked) | 4.994 | 3.584 |
| `COC[C@@H]1CCC[C@]12CN(CCc1ccccc1)CCO2` | - | 8.02 |
| `COc1cc(N2C[C@@H]3COC[C@]3(COc3ncccc3F)C2)ncn1` | - | 9.533 |
| `CCCS(=O)(=O)N1CCC2(CC1)CN(C(=O)N(C)C)c1ccccc12` | 6.944 | 2.804 |
| `O=C(NC1(C(=O)NC2CCCC2)CCCC1)c1ccc2[nH]ncc2c1` | -4.413 | 3.099 |
| `C1CCC(c2nn3c(C4CCCO4)nnc3s2)C1` (centres unmarked) | -12.99 | 7.407 |
| `Cc1cc(F)ccc1OC1(C(=O)O)CCN(Cc2cccnc2N)CC1` | -2.974 | -1.786 |
| `Cc1noc(C)c1CN1C[C@@H]2COC[C@H](C(=O)N3CCCO3)[C@@H]2C1` | - | 2 |
| `CCCn1ncc(C(=O)NC2CCN(C3CCOCC3)CC2)c1C` | -5.298 | 2.781 |
| `Cc1c(NC(=O)CN(C)S(C)(=O)=O)cccc1OC1CCCC1` | 6.426 | 2.166 |
| `Cc1cc(CN(C)C2CCCN(c3cccnn3)C2)no1` (centres unmarked) | -0.4354 | 2.452 |
| `CCc1ncc(C(=O)NCCn2c(C)cc(C)nc2=O)cn1` | -5.475 | -0.3745 |
| `Cc1ccccc1C(NC(=O)CNC(=O)c1ccoc1C)C(C)C` (centres unmarked) | 8.144 | 3.204 |
| `Cn1cc(CN2CCc3ncn(C)c3C2COCc2ccccc2)cn1` (centres unmarked) | 4.557 | -1.935 |
| `O=C(c1ccc2[nH]cnc2c1)N1CCC(COc2ccccn2)CC1` | -10.96 | -4.175 |
| `CN1CC2(CCN(C(=O)c3ccc(-n4cnnc4)cc3Cl)CC2)OC1=O` | 0.8626 | -3.185 |
| `COCc1cc(N(C)CCc2c(C)n[nH]c2C)ncn1` | 2.959 | -0.6165 |
| `CO[C@H]1C[C@@H]2CN(C(=O)Cc3ccc(C)s3)C[C@@H]2C1` | - | 0 |
| `CCc1cnc(N)nc1NCc1ccc(OC)c(OC)c1` | 18.27 | -0.4274 |
| `CCOc1ccc(Cl)c(C(=O)N2CCCC(c3cc(C)[nH]n3)C2)n1` (centres unmarked) | 5.202 | -7.589 |
| `Cn1c(C(=O)NC(Cc2ccsc2)c2cccnc2)cc(=O)n(C)c1=O` (centres unmarked) | 6.848 | 9.557 |
| `COC1COC2(CCN(S(=O)(=O)c3ccc(F)cc3)CC2)C1` (centres unmarked) | 17.33 | -0.7389 |

Some entries from above, unchanged:

| structure | A | B |
|---|---|---|
| `Cc1ccccc1C(NC(=O)CNC(=O)c1ccoc1C)C(C)C` (centres unmarked) | 8.144 | 3.204 |
| `Cc1ccn(CCC(=O)N2CCCC2c2nnc(-c3scnc3C)o2)n1` (centres unmarked) | -20.71 | 4.468 |